Values quoted from earlier work, collected in patent US20210338558A1, “USE OF COLLAGEN BINDING DOMAINS TO DELIVER PRODUCTS TO SKIN” (Fabius Biotechnology, priority 2018, published 2021).

Details: water at ambient temperatures; cited from earlier work

## O=C(O)c1ccccc1O [Salicylic acid]
  solubility in water: practically insoluble
